PubChem BioAssay AID1259286 – Sanger Institute – 2017
In all, the deposit lists 794 reagents; below is a part drawn at random. 17 of them (2.1%) were called active. 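Calls use knock-down alone only; synergy above 0.15 marked separately; viability seems capped at control level; exposure time not given.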 Further read-outs or replicates are left out here. The record does not give: the amount of reagent, the time to read-out.

Purpose: 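Kinases whose loss adds to targeted drug killing of colorectal cancer cells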 (primary screen)
Cell system: NCI-H630 human colorectal cancer cells
Reagents: siRNA pool against human genes
Treatment: anchor drugs BYL719 at 1 µM, cetuximab at 5 µg/ml or trametinib at 10 nM, or DMSO vehicle alone; exposure time not given
Measured: 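Replicate-averaged viability as a fraction of non-targeting control, knock-down-alone robust z-score, and per-drug synergy scores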
Reading the numbers: viability z-score, knock-down alone: higher = more viable cells, weaker knock-down effect; viability vs control, knock-down alone: higher = more viable cells; synergy score with trametinib: higher = stronger synergistic killing with trametinib; synergy score with BYL719: higher = stronger synergistic killing with BYL719
Call rule: 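Essential call: robust z-score of viability with siRNA alone lower than -3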
Calls: active = essential when knocked down alone; inactive = not essential alone

| gene knocked down | viability z-score, knock-down alone | viability vs control, knock-down alone (fraction of control) | synergy score with trametinib | synergy score with BYL719 | call |
| --- | --- | --- | --- | --- | --- |
| ALPK1 (GeneID 80216) | 0.464 | 1 | -0.0479 | -0.0322 | inactive |
| BCR (GeneID 613) | 0.464 | 1 | 0.0145 | -0.0728 | inactive |
| RTN4 (GeneID 57142) | 0.464 | 1 | -0.0265 | -0.0408 | inactive |
| CRKL (GeneID 1399) | 0.464 | 1 | -0.0479 | -0.0814 | inactive |
| ACVR1B (GeneID 91) | 0.464 | 1 | -0.0479 | -0.0547 | inactive |
| DAPK2 (GeneID 23604) | 0.464 | 1 | -0.0344 | 0.00866 | inactive |
| CLK2 (GeneID 1196) | 0.464 | 1 | -0.0479 | -0.0539 | inactive |
| PAK2 (GeneID 5062) | 0.464 | 1 | -0.0479 | 0.0531 | inactive |
| FGFR4 (GeneID 2264) | 0.464 | 1 | -0.0357 | -0.0265 | inactive |
| GRK1 (GeneID 6011) | 0.464 | 1 | -0.0479 | -0.0293 | inactive |
| ATRX (GeneID 546) | 0.464 | 1 | -0.0479 | -0.0456 | inactive |
| PIM3 (GeneID 415116) | 0.464 | 1 | -0.0281 | 0.0302 | inactive |
| EPHA6 (GeneID 285220) | 0.464 | 1 | -0.0304 | 0.104 | inactive |
| PIP4K2C (GeneID 79837) | 0.464 | 1 | -0.0479 | 0.00899 | inactive |
| PAK1 (GeneID 5058) | 0.464 | 1 | -0.00928 | 0.105 | inactive |

The list goes on, starting with the last 3 of the part before.
| gene knocked down | viability z-score, knock-down alone | viability vs control, knock-down alone (fraction of control) | synergy score with trametinib | synergy score with BYL719 | call |
| --- | --- | --- | --- | --- | --- |
| EPHA6 (GeneID 285220) | 0.464 | 1 | -0.0304 | 0.104 | inactive |
| PIP4K2C (GeneID 79837) | 0.464 | 1 | -0.0479 | 0.00899 | inactive |
| PAK1 (GeneID 5058) | 0.464 | 1 | -0.00928 | 0.105 | inactive |
| ACVR1C (GeneID 130399) | 0.464 | 1 | -0.0439 | -0.0506 | inactive |
| MAP4K2 (GeneID 5871) | 0.464 | 1 | -0.0479 | 0.086 | inactive |
| NIM1K (GeneID 167359) | -0.392 | 0.968 | -0.0787 | -0.111 | inactive |
| RPS6KA2 (GeneID 6196) | 0.464 | 1 | 0.0504 | 0.106 | inactive |
| VRK1 (GeneID 7443) | -1.54 | 0.924 | -0.0464 | -0.0983 | inactive |
| EFNA4 (GeneID 1945) | -0.4 | 0.967 | -0.0663 | -0.0386 | inactive |
| NME1 (GeneID 4830) | 0.464 | 1 | -0.0479 | -0.0814 | inactive |
| CSK (GeneID 1445) | 0.464 | 1 | -0.0479 | -0.0539 | inactive |
| SIK3 (GeneID 23387) | 0.464 | 1 | -0.0479 | -0.0574 | inactive |
| DGKG (GeneID 1608) | -1.49 | 0.926 | -0.118 | -0.0794 | inactive |
| ROR2 (GeneID 4920) | 0.464 | 1 | 0.0213 | 0.00109 | inactive |
| MAP3K21 (GeneID 84451) | 0.464 | 1 | -0.0479 | -0.0626 | inactive |
| TPK1 (GeneID 27010) | -1.4 | 0.93 | -0.0452 | 0.0526 | inactive |
| SCYL3 (GeneID 57147) | 0.464 | 1 | 0.0437 | 0.0801 | inactive |
| PI4K2B (GeneID 55300) | 0.216 | 0.991 | -0.00286 | -0.09 | inactive |
| IRAK2 (GeneID 3656) | -0.932 | 0.947 | -0.0981 | -0.13 | inactive |
| FOXP1 (GeneID 27086) | 0.464 | 1 | 0.0527 | 0.12 | inactive |
| BRWD1 (GeneID 54014) | -0.351 | 0.969 | 0.00438 | 0.0198 | inactive |
| LTK (GeneID 4058) | 0.464 | 1 | -0.0199 | 0.0238 | inactive |
